From the supplement of paper PMC12595434, “Development of retinoid nuclear receptor pathway antagonists through targeting aldehyde dehydrogenase 1A3” (iScience, 2025)
The other results are listed elsewhere or left out. Single values of this set are uncertain.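 Many melting curves are irregular; where none melted, Tm was taken as 64 °C.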

Sequences of proteins named here, by UniProt entry; tags and fusion partners are left off. A change or cut given only in a name is not applied to a line headed by its entry.
UniProt Q6PCB8: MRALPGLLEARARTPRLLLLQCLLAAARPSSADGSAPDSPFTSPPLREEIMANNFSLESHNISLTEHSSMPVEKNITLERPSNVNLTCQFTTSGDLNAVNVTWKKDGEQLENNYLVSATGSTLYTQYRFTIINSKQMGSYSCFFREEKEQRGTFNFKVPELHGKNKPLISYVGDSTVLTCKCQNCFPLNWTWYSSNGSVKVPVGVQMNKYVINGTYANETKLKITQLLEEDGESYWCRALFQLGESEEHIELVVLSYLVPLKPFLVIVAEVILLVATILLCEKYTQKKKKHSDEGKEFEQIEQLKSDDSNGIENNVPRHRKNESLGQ
UniProt Q6P9B9, whole entry: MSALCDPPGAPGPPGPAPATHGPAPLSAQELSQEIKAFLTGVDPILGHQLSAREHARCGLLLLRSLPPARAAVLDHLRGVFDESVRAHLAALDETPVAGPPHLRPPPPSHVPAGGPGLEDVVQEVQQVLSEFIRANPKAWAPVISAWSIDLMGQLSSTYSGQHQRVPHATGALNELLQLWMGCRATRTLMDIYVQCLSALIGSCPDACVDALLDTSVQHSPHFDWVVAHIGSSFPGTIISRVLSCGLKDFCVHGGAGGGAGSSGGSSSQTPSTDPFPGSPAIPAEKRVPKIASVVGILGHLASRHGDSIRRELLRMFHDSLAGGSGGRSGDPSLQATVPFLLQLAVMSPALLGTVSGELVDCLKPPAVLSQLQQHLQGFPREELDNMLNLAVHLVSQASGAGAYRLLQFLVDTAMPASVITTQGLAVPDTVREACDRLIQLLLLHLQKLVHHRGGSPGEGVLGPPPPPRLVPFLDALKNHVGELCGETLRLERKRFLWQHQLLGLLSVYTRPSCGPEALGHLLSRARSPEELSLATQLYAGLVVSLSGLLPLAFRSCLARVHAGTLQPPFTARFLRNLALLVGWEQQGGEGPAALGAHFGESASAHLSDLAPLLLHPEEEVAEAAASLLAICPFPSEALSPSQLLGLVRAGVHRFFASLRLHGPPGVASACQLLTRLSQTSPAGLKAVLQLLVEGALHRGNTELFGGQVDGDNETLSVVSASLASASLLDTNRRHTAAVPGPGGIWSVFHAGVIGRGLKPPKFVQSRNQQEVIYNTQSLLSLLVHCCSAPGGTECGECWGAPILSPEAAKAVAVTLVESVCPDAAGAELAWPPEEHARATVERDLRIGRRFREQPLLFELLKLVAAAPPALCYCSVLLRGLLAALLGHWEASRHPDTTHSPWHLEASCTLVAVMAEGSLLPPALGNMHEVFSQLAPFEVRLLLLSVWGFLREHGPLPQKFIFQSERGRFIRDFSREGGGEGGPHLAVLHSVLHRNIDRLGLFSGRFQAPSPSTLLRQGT
UniProt Q86SX3: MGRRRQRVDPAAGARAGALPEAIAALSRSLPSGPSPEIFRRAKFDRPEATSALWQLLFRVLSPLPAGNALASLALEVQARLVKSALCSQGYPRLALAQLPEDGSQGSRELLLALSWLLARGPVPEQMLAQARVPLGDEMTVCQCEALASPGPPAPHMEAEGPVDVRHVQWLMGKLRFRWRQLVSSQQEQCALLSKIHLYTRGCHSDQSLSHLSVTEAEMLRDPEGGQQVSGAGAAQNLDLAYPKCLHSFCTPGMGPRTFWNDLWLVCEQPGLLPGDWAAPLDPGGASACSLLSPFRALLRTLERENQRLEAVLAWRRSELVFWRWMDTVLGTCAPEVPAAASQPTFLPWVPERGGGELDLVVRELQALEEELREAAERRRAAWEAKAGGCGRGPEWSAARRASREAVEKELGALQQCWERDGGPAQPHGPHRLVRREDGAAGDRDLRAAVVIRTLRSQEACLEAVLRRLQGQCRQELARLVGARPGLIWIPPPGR
UniProt Q6ZVM7: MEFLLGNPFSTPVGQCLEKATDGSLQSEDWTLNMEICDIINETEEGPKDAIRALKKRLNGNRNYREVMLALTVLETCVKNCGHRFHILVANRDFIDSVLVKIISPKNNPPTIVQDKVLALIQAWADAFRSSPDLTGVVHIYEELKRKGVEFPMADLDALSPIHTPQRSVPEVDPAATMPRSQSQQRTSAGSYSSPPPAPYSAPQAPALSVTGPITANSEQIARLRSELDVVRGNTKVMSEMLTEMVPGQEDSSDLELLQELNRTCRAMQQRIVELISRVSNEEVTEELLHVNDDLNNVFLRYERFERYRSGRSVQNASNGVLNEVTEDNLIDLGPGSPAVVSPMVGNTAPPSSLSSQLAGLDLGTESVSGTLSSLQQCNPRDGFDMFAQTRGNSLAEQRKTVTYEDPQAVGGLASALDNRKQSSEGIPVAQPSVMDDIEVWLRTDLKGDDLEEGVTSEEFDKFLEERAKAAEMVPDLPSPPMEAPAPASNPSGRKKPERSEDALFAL
UniProt Q6ZRQ5: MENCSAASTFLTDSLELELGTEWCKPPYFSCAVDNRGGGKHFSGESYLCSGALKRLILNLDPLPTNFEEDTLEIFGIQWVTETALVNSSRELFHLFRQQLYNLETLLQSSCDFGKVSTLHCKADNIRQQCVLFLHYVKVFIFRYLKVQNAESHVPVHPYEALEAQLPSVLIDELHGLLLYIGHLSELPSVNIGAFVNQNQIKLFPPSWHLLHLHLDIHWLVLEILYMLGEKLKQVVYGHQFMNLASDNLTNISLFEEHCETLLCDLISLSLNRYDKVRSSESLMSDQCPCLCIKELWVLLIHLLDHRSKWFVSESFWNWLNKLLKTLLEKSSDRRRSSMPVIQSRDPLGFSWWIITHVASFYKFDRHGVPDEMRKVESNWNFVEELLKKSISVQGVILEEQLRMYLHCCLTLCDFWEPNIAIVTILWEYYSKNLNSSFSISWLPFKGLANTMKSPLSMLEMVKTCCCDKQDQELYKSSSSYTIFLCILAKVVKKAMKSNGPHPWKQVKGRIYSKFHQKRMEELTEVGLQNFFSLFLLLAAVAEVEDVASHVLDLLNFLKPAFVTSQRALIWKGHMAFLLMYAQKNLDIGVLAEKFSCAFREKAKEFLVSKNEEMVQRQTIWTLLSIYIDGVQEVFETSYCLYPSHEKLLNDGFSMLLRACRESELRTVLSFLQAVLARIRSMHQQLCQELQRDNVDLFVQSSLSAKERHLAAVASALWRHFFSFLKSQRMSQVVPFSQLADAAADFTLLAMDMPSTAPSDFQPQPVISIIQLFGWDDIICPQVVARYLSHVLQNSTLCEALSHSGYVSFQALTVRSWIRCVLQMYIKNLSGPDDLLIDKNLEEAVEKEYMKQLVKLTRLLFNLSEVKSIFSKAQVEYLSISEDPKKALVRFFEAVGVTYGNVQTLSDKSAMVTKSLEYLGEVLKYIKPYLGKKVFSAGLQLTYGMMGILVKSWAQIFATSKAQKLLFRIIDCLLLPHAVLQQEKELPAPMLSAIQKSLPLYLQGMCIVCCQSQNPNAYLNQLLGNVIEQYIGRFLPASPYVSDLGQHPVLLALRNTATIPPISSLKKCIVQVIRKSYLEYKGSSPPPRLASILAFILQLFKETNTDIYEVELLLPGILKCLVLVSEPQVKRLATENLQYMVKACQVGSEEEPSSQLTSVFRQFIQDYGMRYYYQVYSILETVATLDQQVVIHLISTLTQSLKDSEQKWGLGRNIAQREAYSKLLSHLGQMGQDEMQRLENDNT
UniProt Q6ZNB6: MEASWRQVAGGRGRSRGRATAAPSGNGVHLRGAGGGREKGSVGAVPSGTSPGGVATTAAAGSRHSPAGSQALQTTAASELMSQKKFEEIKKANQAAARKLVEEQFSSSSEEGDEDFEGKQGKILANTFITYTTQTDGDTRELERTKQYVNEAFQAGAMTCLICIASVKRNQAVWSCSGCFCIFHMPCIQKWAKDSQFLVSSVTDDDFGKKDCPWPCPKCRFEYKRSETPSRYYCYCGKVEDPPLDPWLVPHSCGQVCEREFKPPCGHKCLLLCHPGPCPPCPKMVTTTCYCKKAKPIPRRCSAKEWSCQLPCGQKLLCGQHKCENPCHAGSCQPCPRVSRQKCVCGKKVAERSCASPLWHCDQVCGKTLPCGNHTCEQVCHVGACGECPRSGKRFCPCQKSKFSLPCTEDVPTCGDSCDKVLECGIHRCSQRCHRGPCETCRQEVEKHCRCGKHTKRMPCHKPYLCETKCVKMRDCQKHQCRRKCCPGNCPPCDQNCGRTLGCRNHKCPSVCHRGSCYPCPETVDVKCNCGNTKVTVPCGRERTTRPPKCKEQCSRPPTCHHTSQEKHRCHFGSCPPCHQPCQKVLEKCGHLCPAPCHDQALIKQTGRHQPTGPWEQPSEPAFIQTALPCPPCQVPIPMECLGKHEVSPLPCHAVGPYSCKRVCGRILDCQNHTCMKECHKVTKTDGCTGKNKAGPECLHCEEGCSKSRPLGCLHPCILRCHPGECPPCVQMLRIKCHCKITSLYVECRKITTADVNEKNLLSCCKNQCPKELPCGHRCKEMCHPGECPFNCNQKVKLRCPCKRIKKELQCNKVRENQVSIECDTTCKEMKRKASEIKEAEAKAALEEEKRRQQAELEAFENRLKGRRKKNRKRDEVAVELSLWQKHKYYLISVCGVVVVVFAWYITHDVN
UniProt Q6UB35, whole entry: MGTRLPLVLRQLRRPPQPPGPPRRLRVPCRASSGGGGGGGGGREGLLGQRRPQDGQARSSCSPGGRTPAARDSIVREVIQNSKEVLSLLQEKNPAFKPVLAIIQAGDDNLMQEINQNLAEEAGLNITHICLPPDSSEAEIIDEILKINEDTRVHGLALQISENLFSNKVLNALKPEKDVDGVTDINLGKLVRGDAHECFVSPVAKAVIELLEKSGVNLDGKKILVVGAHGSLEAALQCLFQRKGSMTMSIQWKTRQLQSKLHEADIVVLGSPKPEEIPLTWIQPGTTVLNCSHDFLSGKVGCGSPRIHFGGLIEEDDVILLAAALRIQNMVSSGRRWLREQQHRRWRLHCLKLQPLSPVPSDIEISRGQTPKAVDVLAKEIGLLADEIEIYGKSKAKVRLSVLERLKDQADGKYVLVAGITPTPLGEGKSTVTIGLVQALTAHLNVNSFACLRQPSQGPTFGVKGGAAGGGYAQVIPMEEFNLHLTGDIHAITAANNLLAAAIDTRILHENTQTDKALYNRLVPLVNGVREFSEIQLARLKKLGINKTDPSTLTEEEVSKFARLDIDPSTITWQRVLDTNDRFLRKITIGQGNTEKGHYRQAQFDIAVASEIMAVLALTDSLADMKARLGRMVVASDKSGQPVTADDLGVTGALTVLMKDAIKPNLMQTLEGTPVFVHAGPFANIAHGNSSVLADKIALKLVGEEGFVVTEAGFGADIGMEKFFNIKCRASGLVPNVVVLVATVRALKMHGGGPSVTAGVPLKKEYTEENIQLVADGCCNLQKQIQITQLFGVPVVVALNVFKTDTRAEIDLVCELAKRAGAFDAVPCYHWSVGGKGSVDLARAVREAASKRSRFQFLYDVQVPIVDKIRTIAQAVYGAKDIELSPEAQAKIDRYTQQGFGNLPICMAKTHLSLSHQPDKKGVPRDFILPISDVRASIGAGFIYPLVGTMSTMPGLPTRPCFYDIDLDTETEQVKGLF
UniProt Q6PML9: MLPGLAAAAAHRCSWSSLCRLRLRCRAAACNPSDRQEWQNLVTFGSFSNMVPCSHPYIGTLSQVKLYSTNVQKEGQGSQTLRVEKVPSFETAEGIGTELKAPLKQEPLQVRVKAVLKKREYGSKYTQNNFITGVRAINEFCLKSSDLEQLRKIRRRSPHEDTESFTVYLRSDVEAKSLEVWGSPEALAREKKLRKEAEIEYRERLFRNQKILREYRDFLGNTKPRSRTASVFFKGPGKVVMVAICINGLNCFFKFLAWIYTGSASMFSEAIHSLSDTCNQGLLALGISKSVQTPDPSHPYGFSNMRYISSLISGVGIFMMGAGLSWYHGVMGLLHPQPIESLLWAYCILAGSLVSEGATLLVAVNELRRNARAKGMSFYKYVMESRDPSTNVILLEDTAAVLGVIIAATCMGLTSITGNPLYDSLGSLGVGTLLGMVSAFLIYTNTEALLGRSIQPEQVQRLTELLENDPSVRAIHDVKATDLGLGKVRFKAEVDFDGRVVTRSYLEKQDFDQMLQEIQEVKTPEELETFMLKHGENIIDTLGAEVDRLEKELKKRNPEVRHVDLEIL
UniProt Q6ZRY4, whole entry: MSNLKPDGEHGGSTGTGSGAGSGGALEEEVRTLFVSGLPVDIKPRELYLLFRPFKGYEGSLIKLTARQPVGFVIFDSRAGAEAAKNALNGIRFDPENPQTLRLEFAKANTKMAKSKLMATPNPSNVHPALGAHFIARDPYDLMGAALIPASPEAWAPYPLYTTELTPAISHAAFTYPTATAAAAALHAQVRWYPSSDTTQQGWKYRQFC

Compound: CCc1cnccc1C(=O)Nc1cc2c(cc1F)NC(=O)CC2
Assay: melting temperature shift (DMSO Tm minus MBE1-treated Tm) in cellular thermal proteome profiling; higher = less thermal stabilization by MBE1 (negative = stabilized by MBE1)
Conditions: A375

Row | Target | melting temperature shift (MBE1 concentration: 100 nM) [°C] | melting temperature shift (MBE1 concentration: 1 uM) [°C]
1 | UniProt Q6PCB8 | -2.53 | -2.53
2 | UBE3B (UniProt Q7Z3V4) | 0.151 | 0.00891
3 | RABEPK (UniProt Q7Z6M1) | 1.61 | 0.0591
4 | UniProt Q6P9B9 | 0.427 | 0.311
5 | UniProt Q86SX3 | 2 | 0.965
6 | PHLDB1 (UniProt Q86UU1) | 0.293 | 0.0244
7 | TRMT10C (UniProt Q7L0Y3) | 0.641 | 0.403
8 | TOM1L2 (UniProt Q6ZVM7) | -0.476 | 0.0305
9 | CTU1 (UniProt Q7Z7A3) | 0.926 | 1.55
10 | UniProt Q6ZRQ5 | 0.664 | 2.49
11 | MYH14 (UniProt Q7Z406) | 0.812 | 0.55
12 | UniProt Q7Z699 | -0.686 | 1.39
13 | KIAA0907 (UniProt Q7Z7F0) | 1.43 | -0.586
14 | NFXL1 (UniProt Q6ZNB6) | -0.427 | -0.934
15 | MTHFD1L (UniProt Q6UB35) | 0.635 | 0.562
16 | UniProt Q71UM5 | -0.999 | 0.905
17 | UniProt Q6ZU35 | -1.14 | 2.57
18 | SLC30A9 (UniProt Q6PML9) | 0.666 | 0.446
19 | LRRC8D (UniProt Q7L1W4) | -0.872 | 0.359
20 | MTSS1L (UniProt Q765P7) | 0.543 | 1.25
21 | UniProt Q6ZRY4 | -2.2 | -0.849

Reformatted: entries from further up.
Row	Target	melting temperature shift (MBE1 concentration: 100 nM) [°C]	melting temperature shift (MBE1 concentration: 1 uM) [°C]
7	TRMT10C (UniProt Q7L0Y3)	0.641	0.403
8	TOM1L2 (UniProt Q6ZVM7)	-0.476	0.0305
